Experimental findings from article PMC4734682, “Evidence for the Nucleo-Apical Shuttling of a Beta-Catenin Like Plasmodium falciparum Armadillo Repeat Containing Protein” (PLoS ONE, 2016) are described below.

In the experiment the target is Recombinant PfARO (P. falciparum Armadillo Repeats Only protein), full length, C-terminal 6-His tag (P. falciparum (strain 3D7)) (UniProt C0H4A5). Nature of the experiment: reducing SDS-PAGE; purified rPfARO run under reducing conditions; both purified.

These are yes or no findings as the source states them, for the method shown. Sequences can lack the tags named with a protein.

B1: Recombinant PfARO (P. falciparum Armadillo Repeats Only protein), full length, C-terminal 6-His tag (natural protein, P. falciparum (strain 3D7), UniProt C0H4A5 1-275, looked up)
chain: MGNNCCAGRDLLYKNKLQEFGIEGSKTIRKLLSFTSNDILRFDKAYDENDVQEFVNLCSSTCEIEKLEDRMHPWAADPKTIGALSATQLAILASKENEPHYKDAIREANGIAVFINLLKSHELDRVHAAVVALSFLSVDNVKNCICMFESGALPYLISGMKSNIDGMKAACAQTCRNIFVLDKKYKKEFLKLGGITQLVNLLELPSNYDDSQPLYTQLEAIYHLEDFILNDGDEIPEFLEAVKNSNSIKNLKTLQQCPEQDLAEASNVLLLRLTD
notes: PfARO, Plasmodium falciparum strain 3D7, PlasmoDB PF3D7_0414900; full length open reading frame of 275 amino acids amplified from 3D7 cDNA; putative NES at residues 198-204 (LVNLLEL); nine cysteines; Cloned NdeI/XhoI into pET-24b; also called rPfARO; ARM Repeats Only; source: E. coli BL21 (DE3) Codon+, purified (Ni-NTA, size exclusion chromatography on Superdex-200); not shown: His6, C-terminal, …
B1: the binding entry is “no binding (condition: under reducing conditions)”.
